Record: PubChem BioAssay AID1259308 (NCATS, 2017)

Assay: 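Knock-downs that increase output of a recombinant reporter protein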 (primary screen)
System: human HEK293 embryonic kidney cells stably expressing firefly luciferase (HEK-CMV-Luc2-Hygro)
Reagents: single siRNA against human genes, 0.8 pmol siRNA per well
Timing: 72 h
Measured: 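Reporter luminescence and viable-cell signal on separate replicate plates, given as percent of non-targeting control and median/MAD z-scores, plus per-cell luciferase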
Reading the numbers: total luciferase, z-score: higher = more reporter protein produced
Hit rule: 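An siRNA counts as active if its total luciferase robust z-score exceeds 3; genes with two or more such siRNAs out of three were retested with fresh siRNAs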
Calls: active = raised luciferase; inactive = no rise
Shown is one part, drawn at random, of about 59,000 reagents tested. About 1,510 of them (2.6%) were called active. 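Calls use total luciferase alone and ignore viability, so some active siRNAs may act by altering cell number.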 Entries without a mark were called inactive. Reagents against one gene are numbered here. Further read-outs or replicates are left out here.

total luciferase, z-score, by gene symbol and reagent
RPL27A: #1 -2.22; #2 -2.31; #3 -2.53
MT1G: #1 -0.0788; #2 0.241; #3 -1.55
DYNLT2B: #1 1.82; #2 0.35; #3 2.46
TEK: #1 -0.985; #2 -0.329; #3 0.56
GIGYF1: #1 0.336; #2 0.78; #3 -1.34
DTWD2: #1 1.64; #2 0.702; #3 0.147
GPC2: #1 -0.834; #2 0.834; #3 -0.211
AGTPBP1: #1 -0.727; #2 -0.115; #3 -0.53
OR51G2: #1 0.451; #2 0.326; #3 0.536
CIDEC: #1 0.908; #2 -0.57; #3 0.306
TOMM20L: #1 0.799; #2 4.39 (active); #3 0.571
MDGA2: #1 1.43; #2 0.831; #3 0.115
RPS26P8: #1 -2.6; #2 0.403; #3 -0.342
AATF: #1 -0.988; #2 -1.15; #3 -0.212
POLR3K: #1 0.054; #2 0.174; #3 -0.933
SSBP4: #1 -1.77; #2 -0.0498; #3 4.09 (active)
CHRNA3: #1 1.47; #2 1.1; #3 -0.348
NMB: #1 -0.637; #2 -0.79; #3 1.97
PARP3: #1 -1.47; #2 -1.43; #3 -1.08
